The source of these data is PubChem BioAssay AID445 (National Center for Advancing Translational Sciences (NCATS), 2006).

A short description of the test: IkB Signaling. Particulars: ABC-DLBCL IkBa-CBG/CBR dual luciferase ratio (green luciferase fused to IkBa over red control in OCI-Ly3 lymphoma cells), 4 h. The method, boiled down:
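In this assay, an IκBα–CBG68 fusion accumulates when IKK-driven degradation is blocked; native CBR normalizes for cell number. OCI-Ly3 cells were treated 4 h with compound and doxycycline, then green and red light read after Chroma-Glo addition.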

Setting [1] is: measured here: control luc red channel unless noted.

This is one part of the list. The main result of the screen is listed elsewhere. These columns were measured beside it and carry no call. Most of these compounds were active or inconclusive in the main read-out, so they are no random draw. Words in brackets tell the shape of the fitted curve; partial curves, single points and poor fits give uncertain potencies.

By AC50 is commonly meant the concentration giving half of the maximal activity seen.

For the compound `Cc1ccc(-c2nc(-c3cc4cccc(OCc5cccc(F)c5)c4oc3=O)no2)cc1`, the AC50 under setting [1] was 3.98 µM [falling, full curve].

In the case of `CCOc1ccc(-n2c(Cc3ccccc3)nnc2SCc2nc(-c3cccs3)no2)cc1`, the AC50 under setting [1] is 25.1 µM [falling, partial curve].

Turning to `O=C(Nc1ccc(Br)cc1)c1ccc(Cl)c(S(=O)(=O)N2CCCCCC2)c1`, the AC50 under setting [1] was 10 µM [falling, partial curve].

Consider `COc1cccc(NC(=O)c2sc3nc(C)c(C(=O)Nc4ccc(C)cc4C)c(-c4cccs4)c3c2N)c1`, for which the AC50 under setting [1] was 6.31 µM [falling, partial curve].

For `CSc1nc2ccc(Nc3nc(N4CCOCC4)nc(N4CCOCC4)n3)cc2s1`, the AC50 under setting [1] is 3.98 µM [falling, full curve, poor fit].

On to `Cc1ccn2c(Nc3c(C)cccc3C)c(-c3ccc(Cl)s3)nc2c1`, for which the AC50 under setting [1] is 10 µM [falling, partial curve].

On to `Cc1ccc(OCc2nc(C#N)c(NCc3ccc4c(c3)OCO4)o2)cc1`, for which the AC50 (measured here: IkB-luc green channel) was 39.8 µM [falling, single point] and the AC50 (measured here: control luc red channel) is 15.8 µM [falling, partial curve].

As to `CCCCN(CCCC)C1=C(C(=O)c2ccccc2)N(CC)S(=O)(=O)c2ccccc21`, under setting [1], the AC50 was 5.01 µM [falling, partial curve].

For `O=C(Cc1ccc2c(c1)OCCO2)c1c(O)cc(O)cc1O`, the AC50 under setting [1] is 12.6 µM [falling, partial curve].

For the compound `Cc1cc(C)c2nc(-c3ccccn3)cc(C(=O)NCc3ccco3)c2c1`, the AC50 under setting [1] is 15.8 µM [falling, partial curve].

For the compound `Cc1ccc(-c2nc(CSCC(=O)N3CCN(c4ccccn4)CC3)c(C)o2)cc1`, the AC50 under setting [1] is 7.94 µM [falling, partial curve].

With `O=c1oc2ccc(F)cc2cc1-c1nc(-c2cccs2)no1`, under setting [1], the AC50 is 1.58 µM [falling, partial curve].

For the compound `Cc1cc2nc(C3CCN(CC4COc5ccccc5O4)CC3)[nH]c2cc1C` (stereo not drawn), the AC50 under setting [1] was 25.1 µM [falling, single point].

For `CCOc1ccc(NC(=O)c2oc(=O)c3ccccc3c2-c2ccc(C)cc2)cc1`, the AC50 under setting [1] is 39.8 µM [falling, partial curve].

For the compound `CCn1c2c(c(=O)n3ncc(C(=O)Nc4ccc(F)cc4Cl)c13)CN(Cc1ccc(OC)cc1)CC2`, the AC50 under setting [1] was 12.6 µM [falling, partial curve].

In the case of `COc1ccc(-c2nnc(Nc3ccc(OC)c(C(N)=O)c3)c3ccccc23)cc1`, the AC50 under setting [1] is 15.8 µM [falling, partial curve].

`Cc1ccc(C2CC(c3cccc(Br)c3)Nc3nnnn32)cc1` (stereo not drawn): under setting [1], the AC50 is 25.1 µM [falling, partial curve].

`CCc1ccc2oc(-c3cccc(NC(=O)C(C)(C)Oc4ccc(Br)cc4)c3)nc2c1`: the AC50 under setting [1] was 2.51 µM [falling, full curve].

Take `Cc1cc(C)cc(Nc2ncnc3onc(-c4ccc(F)cc4)c23)c1`: the AC50 under setting [1] was 25.1 µM [falling, single point].

Regarding `COc1cc(OC)cc(C(=O)N(Cc2nc(-c3cccc(C)c3)no2)C(C)C)c1`, the AC50 under setting [1] was 15.8 µM [falling, partial curve].

For `COc1cccc(-n2c(SCC(=O)N3CCCc4ccccc43)nc3c([nH]c4ccccc43)c2=O)c1`, the AC50 under setting [1] was 0.251 µM [falling, full curve].

On to `COc1cc(NC(=O)NC(C)c2c(-n3cccc3)sc3c2CCN(C)C3)cc(OC)c1` (stereo not drawn), for which, under setting [1], the AC50 was 39.8 µM [falling, single point].

For `C=CCc1cccc(CNc2nc3ccccc3n2CC)c1O`, the AC50 under setting [1] is 31.6 µM [falling, single point].

As for `COc1ccc(Cl)cc1NC(=O)Cn1c(=O)n(CCCC(=O)NCCc2ccc(OC)c(OC)c2)c(=O)c2ccccc21`, the AC50 under setting [1] is 15.8 µM [falling, partial curve].

Regarding `Cc1ccc(N(CC(=O)Nc2ccc3c(c2)OCCO3)S(=O)(=O)c2c(C)noc2C)cc1`, the AC50 under setting [1] is 15.8 µM [falling, partial curve].

Regarding `COc1cccc(-c2nn(C)c3sc(C(=O)N4CCN(c5ccccc5)CC4)cc23)c1`, the AC50 under setting [1] is 5.01 µM [falling, partial curve].

For the compound `CCOC(=O)Cc1csc(NC(=O)CSc2nnc(-n3nc(C)cc3C)c3ccccc23)n1`, under setting [1], the AC50 was 20 µM [falling, partial curve].

Take `CCn1c(C)c(C)c2cc(C(=O)N3CCN(c4cccc(C)c4C)CC3)ccc21`: the AC50 under setting [1] was 25.1 µM [falling, partial curve].

In the case of `CCOc1ccc(-n2c(=O)c3c4c(sc3n(CC(=O)NC(C)CC)c2=O)CCC4)cc1` (stereo not drawn), the AC50 under setting [1] is 1.26 µM [rising, full curve, poor fit].

Consider `CCOC(=O)c1ccc(N2C(=O)c3n[nH]c(-c4cccs4)c3C2c2cccc(OC)c2)cc1` (stereo not drawn), for which, under setting [1], the AC50 was 12.6 µM [falling, partial curve].

For `CN(C)S(=O)(=O)N(CC(=O)NCCSCc1cccc(Cl)c1)c1ccccc1`, under setting [1], the AC50 is 15.8 µM [falling, single point].

Take `CCC(=O)Nc1ccc2nc(SCc3ccccc3)sc2c1`: the AC50 under setting [1] was 0.501 µM [rising, partial curve].

Take `COc1ccc(C)cc1NC(=O)CSc1nc(=O)[nH]c2c1CCCC2`: the AC50 under setting [1] is 10 µM [falling, partial curve, poor fit].

Regarding `CCC1CN(S(=O)(=O)c2ccc3c(c2)NC(=O)CC(=O)N3)c2cc(Cl)ccc2O1` (stereo not drawn), the AC50 under setting [1] is 3.16 µM [falling, full curve].

As to `Cc1cccc(N2CCN(C(=O)CCC(=O)NNc3nc4ccccc4c4nc(C)nn34)CC2C)c1` (stereo not drawn), the AC50 under setting [1] is 25.1 µM [falling, single point].

As to `CCC(=O)O[C@@]1(C(=O)CCl)[C@@H](C)C[C@@H]2[C@H]3CCC4=CC(=O)C=C[C@@]4(C)[C@]3(F)[C@@H](O)C[C@@]21C`, the AC50 under setting [1] was 12.6 nM [rising, full curve] [measured here: IkB-luc green channel].

With `CC(=O)[C@]1(O)CC[C@@H]2[C@H]3C[C@@H](C)C4=CC(=O)CC[C@@]4(C)[C@H]3[C@@H](O)C[C@]21C`, the AC50 under setting [1] was 2.51 nM [rising, full curve] [measured here: IkB-luc green channel].
